Values of other authors, collected in patent US20130217132A1, “METHODS, COMPOSITIONS AND USE FOR ENHANCING CHEMICAL TOLERANCE BY MICROORGANISMS” (priority 2009, published 2013).

Test system: E. coli
Conditions: E. coli inhibition, acetate compared to benzoate; cited from earlier work

SMILES: CC(=O)O [acetate, acetic acid]
- pHi at which the same growth rate was observed: 7.48

SMILES: O=C(O)c1ccccc1 [benzoate]
- pHi at which the same growth rate was observed: 7.26
